Measured values taken from patent publication US20240110202A1, “Advanced Cell-Permeable Peptide Carriers” (MUSC FOUNDATION FOR RESEARCH DEVELOPMENT, priority 2020, published 2024).

Key:
Serum protection assay = assay type: in vitro ADME; conditions: siCIP2A, 50:1, 50% human serum, 1 hour at 37° C.
Experimental: Afterwards, complexes were either treated or untreated with 50% human serum (final concentration; VWR, Radnor, PA) for 1 hour at 37° C., followed by denaturation with 4% SDS. Next, the samples were electrophoresed on a 4% agarose gel and resulting siCIP2A bands were imaged and quantified, as described above.

siCIP2A [1] = assay: siRNA release assay (heparin competition); conditions: 50:1 complexes
Experimental: Afterwards complexes were incubated with either 0, 0.1, 0.5, 1.0, 2.0, 5.0 or 10 μg heparin (Millipore Sigma, St. Louis, MO) for 30 minutes at RT. The samples were then electrophoresed on a 4% agarose gel and resulting siCIP2A bands were imaged and quantified, as described above.

siCIP2A [2] = assay: siRNA binding assay (gel-shift); conditions: Peptide:siRNA molar ratios of 1:1 through 20:1
Source text: Afterwards, the samples were electrophoresed on a 4% agarose gel and stained with ethidium bromide. Free siCIP2A was used as a normalizing control. An Ultra-Low Range DNA Ladder (Thermo Fisher Scientific, Waltham, MA) was used as a MW marker. Resulting siCIP2A bands were imaged and quantified using a G:Box Chemi XX6 and GeneSys image capture software (Syngene, Frederick, MD), respectively.

CIP2A mRNA = assay: CIP2A silencing in cells, real-time PCR; assay type: cell-based, human; conditions: CAL 27 cells, 50:1, 48 hours
Experimental: CAL 27 cells, grown to a confluency of 60% on 24-well plates, were rinsed three times with Opti-MEM. […] Afterwards, the complexes were added to the cells at a siRNA concentration of 125 nM and incubated for 4 hours at 37° C. with 5% CO2, prior to adjusting the siRNA and FBS concentrations to 100 nM and 10%, respectively, with the addition of 50% FBS/Opti-MEM media. 48 hours post-treatment, the total RNA or protein was harvested for subsequent real-time PCR and Western blot analyses.
Total RNA was harvested using the RNeasy Mini Kit (Qiagen, Germantown, MD). RNA was then reverse transcribed using the High-Capacity cDNA Reverse Transcription Kit (Thermo Fisher Scientific) in a Bio-Rad (Hercules, CA) T100 Thermal Cycler. Next, quantitative real-time PCR was performed in an Applied Biosystems™ StepOnePlus™ Real-Time PCR machine (Thermo Fisher Scientific) using the TaqMan™ Fast Advanced Master Mix (Thermo Fisher Scientific) and predesigned TaqMan™ Gene Expression Assays (Thermo Fisher Scientific) for CIP2A (Hs00405413_m1) and 18S (4319413E), according to the manufacturer's instructions.

[3] = Physicochemical measurements (Zetasizer) of peptide-siCIP2A complexes; conditions: complex with siCIP2A at 50:1 Peptide:siRNA molar (12.5 N/P) ratio in water

GLFEAIEGFIENGWEGMIDGWYGGGGRRRRRRRRRK [All-L]
ability to protect siRNAs in the presence of serum, compared to 599 (Serum protection assay): unstable in serum compared to 599-siRNA complexes
siRNA release compared to 599 (siCIP2A [1]; 0-10 μg heparin, 30 minutes at RT): poor siRNA release
complexed siRNAs (maximally) released (siCIP2A [1]; increasing heparin, maximal at 4-fold excess and higher (≥2 μg; ≥120 pmol) of heparin): ~70%
siRNA binding compared to 599 (siCIP2A [2]): largely no significant changes in siRNA binding relative to 599
gene silencing in comparison to 599 / among the peptide variants (CIP2A mRNA): significant enhancements in gene silencing
enhancement (improvement) in gene silencing in comparison to 599 (CIP2A mRNA; fold change normalized to 599): ~20%
PDI (Polydispersity index) [3]: 0.327
Particle Size ([3]; mean hydrodynamic size, dynamic light scattering, ± SD, three experiments): 190.2 ± 82.4 nm
Zeta Potential ([3]; mean ± SD, three experiments): 39.4 ± 7.3 mV
